The list shows a part of the results.
Legend:
Experiment in all cases: log2 fold change, soluble protein after heating vs DMSO (PISA); higher = thermal stabilisation; K562 cells, 10 uM, 30 min; active = over 0.2 and 3.5 SD of the protein, either way, in both replicates (recomputed)
[1] = compound: CC[C@@H]1C(=O)N(C)c2cnc(Nc3ccc(C(=O)NC4CCN(C)CC4)cc3OC)nc2N1C1CCCC1
Method in brief: (§1)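 K562 cells at 2×10^6 cells/mL were treated with 10 μM compound for 30 min. Aliquots were heated for 3 min across 48°C-58°C, pooled, and extracted in PBS with 0.5% NP-40 at 4°C; soluble protein was the supernatant after 21,000xg for 90 min. Soluble protein was quantified by TMTpro 16plex LC-MS/MS with channel sums equalised, and reported as log2 fold change in thermal stability against DMSO controls, with values from duplicates.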

Amino acid sequences for entries named in this document (tags omitted). A change or cut given only in a name is not applied to a line headed by its entry.
UniProt Q6EEV4: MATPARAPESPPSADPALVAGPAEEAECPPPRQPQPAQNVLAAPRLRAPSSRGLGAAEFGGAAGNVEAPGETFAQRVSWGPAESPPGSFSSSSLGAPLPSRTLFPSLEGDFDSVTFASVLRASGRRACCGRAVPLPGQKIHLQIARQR
UniProt Q9Y3C6: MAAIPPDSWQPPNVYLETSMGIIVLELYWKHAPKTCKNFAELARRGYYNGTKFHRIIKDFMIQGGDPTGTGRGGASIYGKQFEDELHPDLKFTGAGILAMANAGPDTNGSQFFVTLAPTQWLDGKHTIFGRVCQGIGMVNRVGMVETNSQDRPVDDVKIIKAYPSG
UniProt O75439: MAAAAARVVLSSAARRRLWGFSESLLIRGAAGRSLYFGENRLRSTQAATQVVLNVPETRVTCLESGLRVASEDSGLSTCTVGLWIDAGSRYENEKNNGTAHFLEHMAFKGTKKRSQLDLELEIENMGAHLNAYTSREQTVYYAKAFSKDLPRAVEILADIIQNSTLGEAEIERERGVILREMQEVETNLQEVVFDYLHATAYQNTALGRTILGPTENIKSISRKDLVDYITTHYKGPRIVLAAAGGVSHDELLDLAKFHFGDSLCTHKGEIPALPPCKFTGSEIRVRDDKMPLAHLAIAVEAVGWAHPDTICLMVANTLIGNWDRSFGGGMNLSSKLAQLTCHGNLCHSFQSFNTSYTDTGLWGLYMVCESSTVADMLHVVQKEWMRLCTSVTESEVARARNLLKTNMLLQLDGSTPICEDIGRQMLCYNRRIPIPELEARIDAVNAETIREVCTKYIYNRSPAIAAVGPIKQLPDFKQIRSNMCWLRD
UniProt Q9HCU8: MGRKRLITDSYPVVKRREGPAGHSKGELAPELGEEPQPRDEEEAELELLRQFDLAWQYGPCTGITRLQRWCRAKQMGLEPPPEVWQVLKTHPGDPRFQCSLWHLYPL
UniProt Q9HBL7: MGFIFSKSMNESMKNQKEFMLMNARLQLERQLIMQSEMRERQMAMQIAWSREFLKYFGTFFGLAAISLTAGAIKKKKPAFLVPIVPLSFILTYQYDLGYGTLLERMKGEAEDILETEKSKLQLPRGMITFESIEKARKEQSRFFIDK
UniProt P51805: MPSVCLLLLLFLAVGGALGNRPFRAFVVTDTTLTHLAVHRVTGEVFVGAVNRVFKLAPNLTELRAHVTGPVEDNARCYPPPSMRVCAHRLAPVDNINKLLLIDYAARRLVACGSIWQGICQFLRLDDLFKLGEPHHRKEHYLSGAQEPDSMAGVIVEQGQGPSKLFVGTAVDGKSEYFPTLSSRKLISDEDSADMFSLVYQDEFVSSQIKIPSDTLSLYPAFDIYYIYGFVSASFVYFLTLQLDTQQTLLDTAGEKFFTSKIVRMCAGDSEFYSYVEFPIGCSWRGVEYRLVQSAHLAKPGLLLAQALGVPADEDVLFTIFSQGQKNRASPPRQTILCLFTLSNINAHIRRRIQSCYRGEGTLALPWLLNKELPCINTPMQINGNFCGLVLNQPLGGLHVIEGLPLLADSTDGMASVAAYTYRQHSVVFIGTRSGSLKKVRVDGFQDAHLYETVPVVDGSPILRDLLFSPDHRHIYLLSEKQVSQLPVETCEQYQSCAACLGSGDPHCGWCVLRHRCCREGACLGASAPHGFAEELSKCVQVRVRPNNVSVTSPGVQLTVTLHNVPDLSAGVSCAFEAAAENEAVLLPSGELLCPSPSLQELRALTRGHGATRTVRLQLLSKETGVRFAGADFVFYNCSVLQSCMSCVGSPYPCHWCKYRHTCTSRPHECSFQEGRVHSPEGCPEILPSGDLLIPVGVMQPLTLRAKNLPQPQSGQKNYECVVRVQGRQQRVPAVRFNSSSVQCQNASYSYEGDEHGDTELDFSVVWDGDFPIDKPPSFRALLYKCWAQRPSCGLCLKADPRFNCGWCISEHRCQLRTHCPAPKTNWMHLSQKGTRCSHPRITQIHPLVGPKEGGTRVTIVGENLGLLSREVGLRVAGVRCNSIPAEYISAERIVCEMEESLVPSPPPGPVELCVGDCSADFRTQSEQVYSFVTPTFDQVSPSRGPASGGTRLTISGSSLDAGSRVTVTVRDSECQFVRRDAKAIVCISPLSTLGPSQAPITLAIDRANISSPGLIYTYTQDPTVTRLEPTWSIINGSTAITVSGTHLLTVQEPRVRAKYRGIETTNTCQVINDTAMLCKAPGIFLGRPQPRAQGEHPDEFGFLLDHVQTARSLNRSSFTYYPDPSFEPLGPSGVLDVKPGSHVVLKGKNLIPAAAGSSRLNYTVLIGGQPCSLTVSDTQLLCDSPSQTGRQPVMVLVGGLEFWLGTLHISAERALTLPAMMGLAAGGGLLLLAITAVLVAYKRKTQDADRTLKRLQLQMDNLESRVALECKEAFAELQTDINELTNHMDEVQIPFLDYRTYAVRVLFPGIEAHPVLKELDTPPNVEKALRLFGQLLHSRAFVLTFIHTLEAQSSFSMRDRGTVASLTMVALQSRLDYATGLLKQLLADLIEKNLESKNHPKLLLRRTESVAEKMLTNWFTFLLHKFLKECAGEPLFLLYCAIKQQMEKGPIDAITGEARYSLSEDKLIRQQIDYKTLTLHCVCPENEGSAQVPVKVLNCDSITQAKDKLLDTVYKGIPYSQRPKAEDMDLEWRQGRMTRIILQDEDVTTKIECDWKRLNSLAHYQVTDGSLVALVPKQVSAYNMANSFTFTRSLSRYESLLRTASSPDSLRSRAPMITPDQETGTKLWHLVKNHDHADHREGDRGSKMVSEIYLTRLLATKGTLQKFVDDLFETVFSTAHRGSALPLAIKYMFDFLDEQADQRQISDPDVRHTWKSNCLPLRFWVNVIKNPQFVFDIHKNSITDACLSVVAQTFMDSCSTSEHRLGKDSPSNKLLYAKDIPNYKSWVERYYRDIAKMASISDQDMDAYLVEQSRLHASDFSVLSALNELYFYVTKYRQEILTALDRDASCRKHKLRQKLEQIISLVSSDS
UniProt Q6T4P5: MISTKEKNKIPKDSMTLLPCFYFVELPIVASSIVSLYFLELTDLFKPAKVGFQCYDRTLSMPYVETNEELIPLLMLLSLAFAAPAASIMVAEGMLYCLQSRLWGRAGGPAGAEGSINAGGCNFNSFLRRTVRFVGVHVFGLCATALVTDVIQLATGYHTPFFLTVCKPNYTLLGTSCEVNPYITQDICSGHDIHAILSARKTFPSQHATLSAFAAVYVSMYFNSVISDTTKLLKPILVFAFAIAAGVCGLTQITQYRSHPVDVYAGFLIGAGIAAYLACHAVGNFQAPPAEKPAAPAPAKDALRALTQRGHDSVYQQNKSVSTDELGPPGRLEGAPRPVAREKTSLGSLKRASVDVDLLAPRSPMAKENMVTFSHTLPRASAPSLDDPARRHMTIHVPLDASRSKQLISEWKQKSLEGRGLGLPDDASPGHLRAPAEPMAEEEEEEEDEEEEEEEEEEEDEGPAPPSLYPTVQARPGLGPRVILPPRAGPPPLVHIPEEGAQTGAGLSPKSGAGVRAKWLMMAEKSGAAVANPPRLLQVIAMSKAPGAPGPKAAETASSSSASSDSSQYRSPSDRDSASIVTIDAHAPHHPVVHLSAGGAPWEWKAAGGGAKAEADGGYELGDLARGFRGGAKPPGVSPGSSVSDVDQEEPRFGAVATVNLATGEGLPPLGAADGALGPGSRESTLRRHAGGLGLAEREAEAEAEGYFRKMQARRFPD
UniProt Q9NRY6: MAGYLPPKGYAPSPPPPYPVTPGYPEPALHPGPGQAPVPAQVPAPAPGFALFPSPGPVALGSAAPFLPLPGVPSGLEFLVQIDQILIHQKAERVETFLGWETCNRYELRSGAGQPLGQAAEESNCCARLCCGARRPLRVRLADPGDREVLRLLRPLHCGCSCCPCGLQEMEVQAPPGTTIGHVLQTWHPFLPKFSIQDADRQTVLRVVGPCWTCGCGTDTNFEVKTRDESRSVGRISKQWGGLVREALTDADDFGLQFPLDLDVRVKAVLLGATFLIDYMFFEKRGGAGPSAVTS
UniProt P00747, whole entry, looked up: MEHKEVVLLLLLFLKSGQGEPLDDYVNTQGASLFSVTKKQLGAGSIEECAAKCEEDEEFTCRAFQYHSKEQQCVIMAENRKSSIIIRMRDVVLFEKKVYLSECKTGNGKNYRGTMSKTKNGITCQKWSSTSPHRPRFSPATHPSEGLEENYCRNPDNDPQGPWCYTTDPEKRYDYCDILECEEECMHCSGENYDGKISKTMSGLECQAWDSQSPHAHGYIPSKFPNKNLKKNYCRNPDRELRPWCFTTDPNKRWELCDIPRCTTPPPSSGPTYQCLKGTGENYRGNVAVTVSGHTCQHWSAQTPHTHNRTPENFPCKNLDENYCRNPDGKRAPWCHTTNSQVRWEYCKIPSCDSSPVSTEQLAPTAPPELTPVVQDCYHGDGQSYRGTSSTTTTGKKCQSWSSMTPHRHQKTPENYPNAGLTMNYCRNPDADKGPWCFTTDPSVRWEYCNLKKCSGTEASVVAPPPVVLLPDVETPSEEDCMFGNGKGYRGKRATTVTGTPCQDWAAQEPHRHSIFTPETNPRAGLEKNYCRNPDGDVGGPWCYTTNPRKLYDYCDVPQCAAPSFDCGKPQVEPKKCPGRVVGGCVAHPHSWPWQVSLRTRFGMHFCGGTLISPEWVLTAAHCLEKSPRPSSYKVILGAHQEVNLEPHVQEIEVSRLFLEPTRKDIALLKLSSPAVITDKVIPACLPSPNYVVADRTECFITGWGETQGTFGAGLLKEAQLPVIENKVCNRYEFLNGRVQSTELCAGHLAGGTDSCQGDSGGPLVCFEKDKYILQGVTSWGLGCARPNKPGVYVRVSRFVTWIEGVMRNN
POLG, A0A3B3IS91, UniProt A0A3B3IS91, whole entry, looked up: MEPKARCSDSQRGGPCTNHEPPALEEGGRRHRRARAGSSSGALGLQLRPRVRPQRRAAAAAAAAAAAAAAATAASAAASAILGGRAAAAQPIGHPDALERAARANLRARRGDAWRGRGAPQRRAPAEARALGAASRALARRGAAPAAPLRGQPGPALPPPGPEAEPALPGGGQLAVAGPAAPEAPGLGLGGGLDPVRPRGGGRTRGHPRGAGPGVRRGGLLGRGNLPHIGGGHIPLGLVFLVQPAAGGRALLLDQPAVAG

volasertib = compound: CC[C@@H]1C(=O)N(C)c2cnc(Nc3ccc(C(=O)N[C@H]4CC[C@H](N5CCN(CC6CC6)CC5)CC4)cc3OC)nc2N1C(C)C [volasertib]
Method in brief: as §1

[2] = compound: CC[C@H](C)N1C=C(C2=C(C=C(C=C21)C3=CN=C(C=C3)N4CCNCC4)C(=O)NCC5=C(C=C(NC5=O)C)C)C
Method in brief: as §1

epoxomicin = compound: CC[C@H](C)[C@@H](C(=O)N[C@@H]([C@@H](C)O)C(=O)N[C@@H](CC(C)C)C(=O)[C@]1(CO1)C)NC(=O)[C@H]([C@@H](C)CC)N(C)C(=O)C [epoxomicin]
Method in brief: as §1

[3] = compound: CCn1cc(-c2ccnc3[nH]c(-c4cccc(CN(C)C)c4)cc23)c(-c2ccc(NC(=O)N(C)C)cc2)n1
Method in brief: as §1

[4] = compound: CN(C)CC(=O)Nc1ccc2[nH]c(=O)c3ccccc3c2c1
Method in brief: as §1

[5] = compound: CN1C2=C(C3=C1C(=O)N(N=C3)CC4=CC(=CC=C4)N)SC(=C2)S(=O)C
Method in brief: as §1

[6] = compound: CN1CCC(CNc2ccc3ncc(-c4cccc(OC(F)(F)F)c4)n3n2)CC1
Method in brief: as §1

saracatinib = compound: CN1CCN(CCOc2cc(OC3CCOCC3)c3c(Nc4c(Cl)ccc5c4OCO5)ncnc3c2)CC1 [saracatinib]
Method in brief: as §1

sotrastaurin = compound: CN1CCN(c2nc(C3=C(c4c[nH]c5ccccc45)C(=O)NC3=O)c3ccccc3n2)CC1 [sotrastaurin]
Method in brief: as §1

Tubastatin A = compound: CN1CCc2c(c3ccccc3n2Cc2ccc(C(=O)NO)cc2)C1 [Tubastatin A]
Method in brief: as §1

[7] = compound: CNC(=O)C1=CC=CC=C1NC2=NC(=NC=C2Cl)NC3=C(C=C(C=C3)N4CCOCC4)OC
Method in brief: as §1

defactinib = compound: CNC(=O)c1ccc(Nc2ncc(C(F)(F)F)c(NCc3nccnc3N(C)S(C)(=O)=O)n2)cc1 [defactinib]
Method in brief: as §1

rucaparib = compound: CNCc1ccc(-c2[nH]c3cc(F)cc4c3c2CCNC4=O)cc1 [rucaparib]
Method in brief: as §1

[8] = compound: CNc1nc(-c2ccc3c(N)n[nH]c3c2)cc(N2C[C@@H](C(=O)NC3CCCCC3)CC[C@H]2C)n1
Method in brief: as §1

encorafenib = compound: COC(=O)N[C@@H](C)CNc1nccc(-c2cn(C(C)C)nc2-c2cc(Cl)cc(NS(C)(=O)=O)c2F)n1 [encorafenib]
Method in brief: as §1

[9] = compound: COC(=O)[C@H](CCSC)NC(=O)C1=C(C=C(C=C1)NC[C@H](CS)N)C2=CC=CC=C2
Method in brief: as §1

rosiglitazone = compound: CN(CCOC1=CC=C(C=C1)C[C@H]2C(=O)NC(=O)S2)C3=CC=CC=N3 (racemic) [rosiglitazone]
Method in brief: as §1

alvocidib = compound: CN1CC[C@H](c2c(O)cc(O)c3c(=O)cc(-c4ccccc4Cl)oc23)[C@H](O)C1 [alvocidib]
Method in brief: as §1

[10] = compound: CCn1c(C(=O)N(C2CC2)C2CC2)cc2c3c(ncn3C)c(Nc3cc(C)n(C)n3)nc21
Method in brief: as §1

Measured: log2 fold change

POLR2I (UniProt P36954)
inactive: [1] 0.209 | volasertib 0.232 | [2] 0.055 | epoxomicin 0.007 | [3] -0.208 | [4] -0.107 | [5] -0.009 | [6] 0.202 | saracatinib 0.134 | sotrastaurin 0.033 | Tubastatin A -0.266 | [7] 0.009 | defactinib 0.141 | rucaparib 0.162 | [8] 0.02 | encorafenib 0.015 | [9] 0.023

POLR2M (UniProt Q6EEV4)
inactive: [1] 0.13 | volasertib 0.009 | [2] 0.002 | epoxomicin 0.154 | [4] 0.091 | [5] 0.105 | saracatinib 0.011 | sotrastaurin -0.015 | Tubastatin A -0.131 | [7] 0.097 | defactinib -0.081 | rucaparib -0.145 | [8] -0.084 | encorafenib -0.047 | [9] 0.026

PPIL1 (UniProt Q9Y3C6)
inactive: [1] 0.014 | volasertib -0.051 | [2] 0.01 | epoxomicin -0.024 | [3] 0.02 | [4] -0.014 | [5] 0.049 | [6] 0.018 | saracatinib -0.007 | sotrastaurin -0.088 | Tubastatin A -0.016 | [7] 0.042 | defactinib 0.09 | rucaparib 0.056 | [8] -0.062 | encorafenib 0.052 | [9] -0.042

PMPCB (UniProt O75439)
inactive: [1] 0.008 | volasertib 0.138 | [2] 0.038 | epoxomicin 0.022 | [3] -0.125 | [4] 0.032 | [5] -0.084 | [6] 0.098 | saracatinib 0.001 | sotrastaurin 0.051 | Tubastatin A -0.068 | [7] 0.005 | defactinib -0.042 | rucaparib -0.033 | [8] -0.003 | encorafenib -0.022 | [9] -0.029

POLB (UniProt P06746)
inactive: [1] -0.127 | volasertib -0.073 | [2] 0.077 | epoxomicin 0.043 | [3] 0.111 | [5] 0.016 | [6] -0.156 | saracatinib -0.21 | sotrastaurin -0.16 | Tubastatin A 0.138 | [7] 0.062 | rucaparib 0.095 | [8] 0.05 | encorafenib 0.031

POLD4 (UniProt Q9HCU8)
inactive: [1] 0.196 | volasertib 0.228 | [2] -0.005 | [3] -0.056 | rosiglitazone 0.105 | [5] 0.047 | [6] -0.376 | saracatinib 0.081 | alvocidib -0.195 | Tubastatin A 0.05 | rucaparib 0.227 | [8] -0.026 | encorafenib 0.031

PPIP5K2 (UniProt H0Y9S9)
inactive: [1] -0.051 | volasertib -0.266 | [2] -0.02 | epoxomicin 0.086 | rosiglitazone -0.077 | [5] -0.168 | saracatinib 0.178 | sotrastaurin 0 | alvocidib -0.073 | Tubastatin A 0.128 | rucaparib 0.032 | [8] -0.01 | encorafenib -0.12

PNKP (UniProt Q96T60)
inactive: [1] -0.061 | volasertib -0.286 | [3] -0.033 | [4] 0.164 | [5] 0 | [6] -0.425 | saracatinib -0.043 | sotrastaurin 0.164 | alvocidib 0.115 | Tubastatin A -0.077 | defactinib -0.055 | rucaparib 0.356 | [8] 0.041 | encorafenib 0 | [9] -0.224

Quoted from the results shown (2 entries):
PMPCB (UniProt O75439)
inactive: [1] 0.008 | volasertib 0.138 | [2] 0.038 | epoxomicin 0.022 | [3] -0.125 | [4] 0.032 | [5] -0.084 | [6] 0.098 | saracatinib 0.001 | sotrastaurin 0.051 | Tubastatin A -0.068 | [7] 0.005 | defactinib -0.042 | rucaparib -0.033 | [8] -0.003 | encorafenib -0.022 | [9] -0.029

POLB (UniProt P06746)
inactive: [1] -0.127 | volasertib -0.073 | [2] 0.077 | epoxomicin 0.043 | [3] 0.111 | [5] 0.016 | [6] -0.156 | saracatinib -0.21 | sotrastaurin -0.16 | Tubastatin A 0.138 | [7] 0.062 | rucaparib 0.095 | [8] 0.05 | encorafenib 0.031

More results follow:

PLGRKT (UniProt Q9HBL7)
inactive: [1] -0.08 | [2] -0.02 | epoxomicin -0.142 | [10] 0.035 | [3] 0.075 | rosiglitazone 0.055 | [5] 0.008 | [6] 0.019 | saracatinib 0.086 | sotrastaurin 0.051 | alvocidib -0.01 | Tubastatin A -0.029 | [7] -0.001 | rucaparib -0.104 | [8] -0.086 | encorafenib -0.126

POLR2E (UniProt P19388)
inactive: [1] 0.027 | volasertib -0.067 | [2] 0.018 | epoxomicin 0.065 | [3] 0.015 | [4] 0.034 | [5] 0.092 | [6] 0.09 | saracatinib -0.077 | Tubastatin A -0.009 | [7] -0.076 | defactinib 0.216 | rucaparib 0.153 | [8] 0.104 | encorafenib 0.025 | [9] -0.081

PLXNA3 (UniProt P51805)
inactive: epoxomicin 0.021 | [3] -0.104 | rosiglitazone 0.202 | [5] -0.052 | [6] -0.241 | saracatinib -0.112 | sotrastaurin -0.131 | Tubastatin A 0.24 | [8] -0.117

PLPPR3 isoform 3 (UniProt Q6T4P5)
inactive: epoxomicin 0.129 | [3] -0.276 | [6] 0.152 | alvocidib 0.154

PLSCR3 (UniProt Q9NRY6)
inactive: [2] -0.026 | [10] 0.002 | [3] 0.035 | [6] 0.246 | alvocidib -0.087 | [7] -0.093

PLG (UniProt P00747)
inactive: volasertib 0.054 | [2] 0.11 | [10] 0.061 | [3] 0.051 | [4] 0.117 | rosiglitazone -0.187 | [5] 0.21 | [6] -0.029 | saracatinib 0.248 | sotrastaurin 0.278 | alvocidib -0.201 | Tubastatin A -0.145 | [7] 0.1 | defactinib -0.244 | [8] 0.094 | [9] 0.291

POLG, A0A3B3IS91
inactive: [10] -0.083 | [5] 0.011 | saracatinib -0.09 | Tubastatin A -0.002 | [7] 0.065 | [8] -0.082

From the supplement of paper PMC10849652
